# Data published in paper PMC6010545, “Identification of a Novel Polyamine Scaffold With Potent Efflux Pump Inhibition Activity Toward Multi-Drug Resistant Bacterial Pathogens” (Frontiers in Microbiology, 2018).
# Where two headings read alike, the source gives them in different places.
# Tested on: S. aureus
# Assay: microbe, parasite or virus in culture
# Format: cell-based
# Conditions: Staphylococcus aureus
# Protocol: The bacterial strains used in this study are multi-drug resistant clinical isolates that have previously been described (Supplementary Table S1; [Fleeman et al., 2015]). Organisms were grown in tryptic soy broth (TSB) for overnight cultures and cation adjusted Mueller Hinton broth (CA-MH II) was used for experimental procedures. All incubations were performed at 37°C. The minimum inhibitory concentrations (MICS) for all antibiotics tested against these organisms are shown in Supplementary Table S1.
compound,measurement,setting,value
CN(C)[C@@H]1C(O)=C(C(N)=O)C(=O)[C@@]2(O)C(O)=C3C(=O)c4c(O)cccc4[C@@](C)(O)[C@H]3C[C@@H]12 [tetracycline],MIC,"USA100, read-out: minimal inhibitory concentration",1.76 µM
same,MIC,"USA300, read-out: minimal inhibitory concentration",2.25 µM
